Assay results as given in patent publication US20120128593A1, “USE OF A MAGNETIC RESONANCE IMAGING MEDIUM COMPRISING HYPERPOLARIZED 13C PYRUVATE FOR THE DETECTION OF INFLAMMATION OR INFECTION” (priority 2010, published 2012).

Tested on: arthritic joints
Experiment: 13C MRS (FID CSI, 1D EPSI) of arthritic and normal joints after injection of hyperpolarized 13C-pyruvate
Type: in vivo, Sprague Dawley rats
Details: for ratio of metabolite at the joint to total 13C: lactate / ratio of metabolite at the joint to total 13C: pyruvate: ROI analysis, FID CSI 20 sec after injection
Procedure: Arthritis was induced in six juvenile Sprague Dawley rats (age 4-5 weeks, mean weight 114 grams) with injection of 0.4 μL/g complete Freund's adjuvant (3 rats at the right knee and 3 rats at the right ankle). Arthritic joints were imaged 7 days after induction with ^13C MRS on a GE 3 T scanner equipped with self-shielded gradients (40 mT/m, 150 mT/m/ms) and a custom-built dual-tuned (^1H/^13C) quadrature coil (Ø=80 mm) for both excitation and signal reception. 0.5 mL of a 100 mM solution of ^13C-1-pyruvate was hyperpolarized by DNP (15-20% liquid state polarization) and injected via the tail vein. Single-time point MRS analysis of 13C-1 pyruvate and its metabolites was obtained 20 sec after injection with a FID CSI sequence (voxel=2.5×2.5×10 mm, FOV=4×4 cm). Time resolved imaging was obtained with a 1D EPSI sequence during a second hyperpolarized ^13C-pyruvate injection. Mean signal intensities of pyruvate and lactate were obtained with ROI analysis at the joints and normal and arthritic joints were compared with the T-test.

CC(=O)C(=O)O [[1-^13C]pyruvate, ^13C1-pyruvate]
ratio of metabolite at the joint to total 13C: lactate (arthritic joint, p<0.12 vs normal): 0.21 | ratio of metabolite at the joint to total 13C: pyruvate (arthritic joint, p<0.17 vs normal): 0.34 | ratio of lactate to total 13C (arthritic joint, p<0.03 vs normal): 0.62 | rate of conversion to lactate (arthritic joints vs normal, time resolved imaging (FIG. 2)): increased | lactate production in metabolic maps (arthritic paw vs normal paw, 20 sec after injection (FIG. 1)): increased lactate production | ratio of lactate to total 13C (normal joint): 0.56 | ratio of metabolite at the joint to total 13C: lactate (normal joint): 0.16 | ratio of metabolite at the joint to total 13C: pyruvate (normal joint): 28
